Data source: PubChem BioAssay AID1259254 (NCATS, 2017)
In all, the deposit lists about 59,000 reagents; shown is a part drawn at random. About 1,550 of them (2.6%) count as active. 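G2 share is only a proxy for re-replication; each gene was hit by three separate siRNAs, and active genes were retested.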 A number with no mark means an inactive call. The numbers tell different reagents against one gene apart. Not all columns of the deposit are shown. Not given: the amount of reagent.

Purpose: 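Genome-wide screen for genes that prevent DNA re-replication in cancer cells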 (primary screen)
Cells: human HCT116 colorectal cancer cells
Reagents: single siRNA against human genes
Time to read-out: 3 days
Measurement: 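Imaged Hoechst DNA stain sorts each cell into a cycle phase by DNA amount; per plate, G2 fraction set to 0% for non-targeting and 100% for GMNN siRNA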
Reading the numbers: G2 robust z-score: higher = more G2 cells, more excess DNA replication
Hit rule: 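Active siRNAs have a G2 robust z of 5 or more median absolute deviations over the median, which in these data means about 38% or higher of GMNN control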

G2 robust z-score, by gene and reagent
TMEM253: #1 -0.305; #2 -0.256; #3 -0.715
NBL1: #1 0.029; #2 -1.05; #3 -0.132
MACO1: #1 -1.05; #2 0.426; #3 -0.867
TMEM190: #1 6.68 (active); #2 -0.372; #3 0.731
NSF: #1 -0.0884; #2 -0.211; #3 -0.908
CST6: #1 -0.141; #2 2.63; #3 4.32
SLC46A2: #1 1.4; #2 -0.3; #3 -0.567
SPATC1L: #1 0.101; #2 -0.612; #3 0.382

Laid out differently: 4 of the entries above
{"gene":"TMEM190","reagent no.":2,"G2 robust z-score":-0.372}
{"gene":"TMEM190","reagent no.":3,"G2 robust z-score":0.731}
{"gene":"NSF","reagent no.":1,"G2 robust z-score":-0.0884}
{"gene":"NSF","reagent no.":2,"G2 robust z-score":-0.211}

Next results follow:
G2 robust z-score, by gene and reagent
NPIPB15: #1 -0.653; #2 -0.451; #3 0.688
JAG1: #1 -1.34; #2 2.59; #3 2.6
DSCR4: #1 2.05; #2 -0.101; #3 0.0432
PPP1R8: #1 -1.28; #2 -0.139; #3 -1.12
BCAT2: #1 -0.724; #2 0.458; #3 0.438
SERPINB13: #1 -0.384; #2 -1.03; #3 0.419
MCIDAS: #1 -0.678; #2 -0.901; #3 2.49
UST: #1 -0.226; #2 1.36; #3 0.39
